# Results published in ChEMBL document CHEMBL3745658, “An Orally Bioavailable, Indole-3-glyoxylamide Based Series of Tubulin Polymerization Inhibitors Showing Tumor Growth Inhibition in a Mouse Xenograft Model of Head and Neck Cancer” (J Med Chem, 2015).
# How the values were obtained:
# [1] = Aqueous solubility of the compound by UV-HPLC; conditions: buffer
# [2] = Solubility in 2% DMSO containing 50 mM potassium phosphate buffer solution at pH 7.4 by dynamic light scattering method
smiles,measurement,setting,value
COCCn1cc(C(=O)C(=O)Nc2ccc(OC)nc2)c2ccccc21,solubility,[1],10 µM
same,solubility kinetic,[2],80 µM
